PubChem BioAssay AID1053208, Peter MacCallum Cancer Centre | 2014
Aim: 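Genes whose silencing cuts survival of bone tumour cells only with doxorubicin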 (primary screen). System: mouse osteosarcoma cells, early-passage culture from an engineered mouse model of fibroblastic bone tumour. Reagents: siRNA pool against mouse genes, 40 nM. Timing: about 120 h (48 h before drug, then 72 h with drug). Challenge: doxorubicin 100 nM for 72 h, roughly 30-40% inhibitory dose. Read-out: 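Luminescent ATP signal taken as viability with or without 100 nM doxorubicin for 72 h; mean of two wells set against non-targeting siRNA and turned into robust z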. Scale: viability z-score with doxorubicin and doxorubicin viability vs non-targeting: higher = more viable cells under doxorubicin; viability z-score without drug: higher = more viable cells with knock-down alone; z-score of drug to no-drug ratio: higher = less drug sensitisation by knock-down. Hit rule: 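Called active if knock-down leaves viability unchanged without drug (z within -2 to 2) but lowers it with doxorubicin (z at or under -2)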.
The deposit covers about 17,000 reagents; below is an unselected part. Of all reagents, 788 (4.7%) were called active. 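Calls rest on z-score classes alone; an extra cut-off of viability at most 70% of control was not applied to them.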 Unmarked entries are inactive.

| Gene | combined z-score class | viability z-score with doxorubicin | viability z-score without drug | z-score of drug to no-drug ratio | doxorubicin viability vs non-targeting |
| --- | --- | --- | --- | --- | --- |
| Ahcy (S-adenosylhomocysteine hydrolase) | no change with or without drug | 0.11 | -0.34 | 0.45 | 0.95 |
| Mefv (Mediterranean fever) | no change with or without drug | 0.22 | 0.67 | -0.11 | 0.96 |
| Npr3 (natriuretic peptide receptor 3) | high cell count with doxorubicin only | 2.25 | 0.67 | 1.91 | 1.14 |
| Pex12 (peroxisomal biogenesis factor 12) | high cell count without drug only | 0.22 | 2.87 | -1.35 | 0.96 |
| Pirb (paired Ig-like receptor B) | low cell count with doxorubicin only (active) | -3.37 | -0.51 | -3.15 | 0.64 |
| Pimreg (PICALM interacting mitotic regulator) | no change with or without drug | -0.67 | 0.84 | -1.12 | 0.88 |
| Pank4 (pantothenate kinase 4) | high cell count with doxorubicin only | 2.14 | -0.51 | 2.81 | 1.13 |
| Cntn4 (contactin 4) | no change with or without drug | 1.91 | 1.18 | 1.24 | 1.11 |
| Trmt11 (tRNA methyltransferase 11) | no change with or without drug | -0.22 | -1.18 | 0.79 | 0.92 |
| Itga5 (integrin alpha 5 (fibronectin receptor alpha)) | no change with or without drug | -1.46 | -1.69 | -0.34 | 0.81 |
| Mrps33 (mitochondrial ribosomal protein S33) | low cell count with and without drug | -2.02 | -2.19 | -0.56 | 0.76 |
| Derl2 (Der1-like domain family, member 2) | no change with or without drug | 0.9 | 0.34 | 0.79 | 1.02 |
| Hnrnpd (heterogeneous nuclear ribonucleoprotein D) | no change with or without drug | 0.22 | -1.69 | 1.69 | 0.96 |
| B4galt6 | no change with or without drug | -0.45 | -0.17 | -0.22 | 0.9 |
| Ppib (peptidylprolyl isomerase B) | no change with or without drug | -1.24 | 1.18 | -1.91 | 0.83 |
| Rps29 (ribosomal protein S29) | low cell count with and without drug | -4.27 | -3.88 | -2.25 | 0.56 |
| Stpg2 (sperm tail PG rich repeat containing 2) | no change with or without drug | 1.35 | -0.34 | 1.8 | 1.06 |
| Fasn (fatty acid synthase) | no change with or without drug | 0.11 | -0.67 | 0.67 | 0.95 |
| Mlx (MAX-like protein X) | no change with or without drug | 0.11 | 0.17 | 0.11 | 0.95 |
| Casp2 (caspase 2) | no change with or without drug | 0.56 | -0.17 | 0.79 | 0.99 |
| Scart1 (scavenger receptor family member expressed on T cells 1) | no change with or without drug | -1.35 | 1.35 | -2.02 | 0.82 |
| Mettl28 (methyltransferase like 28) | no change with or without drug | -0.67 | -1.35 | 0.34 | 0.88 |
| Phf13 (PHD finger protein 13) | no change with or without drug | -0.67 | 0.84 | -1.12 | 0.88 |
| Snx11 (sorting nexin 11) | no change with or without drug | -1.57 | -1.52 | -0.56 | 0.8 |
| Tdh (L-threonine dehydrogenase) | no change with or without drug | -1.8 | 0.17 | -1.91 | 0.78 |
| Nkiras1 (NFKB inhibitor interacting Ras-like protein 1) | no change with or without drug | 0 | -0.84 | 0.67 | 0.94 |
| Cyp2d26 (cytochrome P450, family 2, subfamily d, polypeptide 26) | no change with or without drug | 0.34 | 0.67 | 0 | 0.97 |
| Clec10a (C-type lectin domain family 10, member A) | no change with or without drug | -0.45 | -0.17 | -0.22 | 0.9 |
| Slfn5 (schlafen 5) | no change with or without drug | -1.12 | -0.17 | -1.01 | 0.84 |
| Rps6ka5 (ribosomal protein S6 kinase A5) | no change with or without drug | -0.11 | -0.34 | 0.22 | 0.93 |
| Or52e19b (olfactory receptor family 52 subfamily E member 19B) | no change with or without drug | 0 | -0.84 | 0.67 | 0.94 |
| Rpa1 (replication protein A1) | low cell count with and without drug | -7.42 | -4.38 | -6.41 | 0.28 |
| Tcf21 (transcription factor 21) | no change with or without drug | 1.57 | 1.35 | 0.79 | 1.08 |

Continued, starting with the last 7 of the part before.
| Gene | combined z-score class | viability z-score with doxorubicin | viability z-score without drug | z-score of drug to no-drug ratio | doxorubicin viability vs non-targeting |
| --- | --- | --- | --- | --- | --- |
| Cyp2d26 (cytochrome P450, family 2, subfamily d, polypeptide 26) | no change with or without drug | 0.34 | 0.67 | 0 | 0.97 |
| Clec10a (C-type lectin domain family 10, member A) | no change with or without drug | -0.45 | -0.17 | -0.22 | 0.9 |
| Slfn5 (schlafen 5) | no change with or without drug | -1.12 | -0.17 | -1.01 | 0.84 |
| Rps6ka5 (ribosomal protein S6 kinase A5) | no change with or without drug | -0.11 | -0.34 | 0.22 | 0.93 |
| Or52e19b (olfactory receptor family 52 subfamily E member 19B) | no change with or without drug | 0 | -0.84 | 0.67 | 0.94 |
| Rpa1 (replication protein A1) | low cell count with and without drug | -7.42 | -4.38 | -6.41 | 0.28 |
| Tcf21 (transcription factor 21) | no change with or without drug | 1.57 | 1.35 | 0.79 | 1.08 |
| Kctd20 (potassium channel tetramerisation domain containing 20) | no change with or without drug | -1.12 | 0.34 | -1.24 | 0.84 |
| Fads2 (fatty acid desaturase 2) | no change with or without drug | 0.56 | 0.17 | 0.56 | 0.99 |
| Slc4a3 | no change with or without drug | 0.45 | 0.84 | 0 | 0.98 |
| Cdk7 (cyclin dependent kinase 7) | no change with or without drug | -0.22 | -1.69 | 1.12 | 0.92 |
| Mapre3 (microtubule-associated protein, RP/EB family, member 3) | no change with or without drug | 0.9 | -0.17 | 1.24 | 1.02 |
| Dvl1 (dishevelled segment polarity protein 1) | no change with or without drug | -0.45 | 0.17 | -0.45 | 0.9 |
| Ppme1 (protein phosphatase methylesterase 1) | no change with or without drug | -1.35 | -0.84 | -0.79 | 0.82 |
| Gprc5a (G protein-coupled receptor, family C, group 5, member A) | no change with or without drug | 0.34 | 0.51 | 0.11 | 0.97 |
| D930030D11Rik (RIKEN cDNA D930030D11 gene) | no change with or without drug | -1.12 | 0.51 | -1.35 | 0.84 |
| Tnpo1 (transportin 1) | no change with or without drug | 0.22 | 0.67 | -0.11 | 0.96 |
| Atp5f1a (ATP synthase F1 subunit alpha) | no change with or without drug | 0 | -1.35 | 1.12 | 0.94 |
| Klhl24 (kelch-like 24) | no change with or without drug | -1.46 | 1.69 | -2.36 | 0.81 |
| Csf2ra | no change with or without drug | -0.9 | 1.18 | -1.57 | 0.86 |
| Cmbl (carboxymethylenebutenolidase homolog) | high cell count with and without drug | 2.02 | 3.2 | 0 | 1.12 |
| 9630028B13Rik (RIKEN cDNA 9630028B13 gene) | no change with or without drug | -0.67 | -0.17 | -0.45 | 0.88 |
| Ezh1 (enhancer of zeste 1 polycomb repressive complex 2 subunit) | no change with or without drug | 1.8 | 1.52 | 0.9 | 1.1 |
| Flad1 (flavin adenine dinucleotide synthetase 1) | no change with or without drug | -0.45 | -0.84 | 0.22 | 0.9 |
